Results: PMC5622089
Results are given in words; binding and its absence hold for the method and conditions named. Binding seen in cells or lysates may run through a third protein. A yes stands for co-enrichment or nearness to the bait. Other partners may have been found. Sequences can lack the tags named with a protein. Values belong to the molecule of their own block, whether it stands above or below them.

Amino acid sequences for entries named in this document (tags omitted).
UniProt P13864: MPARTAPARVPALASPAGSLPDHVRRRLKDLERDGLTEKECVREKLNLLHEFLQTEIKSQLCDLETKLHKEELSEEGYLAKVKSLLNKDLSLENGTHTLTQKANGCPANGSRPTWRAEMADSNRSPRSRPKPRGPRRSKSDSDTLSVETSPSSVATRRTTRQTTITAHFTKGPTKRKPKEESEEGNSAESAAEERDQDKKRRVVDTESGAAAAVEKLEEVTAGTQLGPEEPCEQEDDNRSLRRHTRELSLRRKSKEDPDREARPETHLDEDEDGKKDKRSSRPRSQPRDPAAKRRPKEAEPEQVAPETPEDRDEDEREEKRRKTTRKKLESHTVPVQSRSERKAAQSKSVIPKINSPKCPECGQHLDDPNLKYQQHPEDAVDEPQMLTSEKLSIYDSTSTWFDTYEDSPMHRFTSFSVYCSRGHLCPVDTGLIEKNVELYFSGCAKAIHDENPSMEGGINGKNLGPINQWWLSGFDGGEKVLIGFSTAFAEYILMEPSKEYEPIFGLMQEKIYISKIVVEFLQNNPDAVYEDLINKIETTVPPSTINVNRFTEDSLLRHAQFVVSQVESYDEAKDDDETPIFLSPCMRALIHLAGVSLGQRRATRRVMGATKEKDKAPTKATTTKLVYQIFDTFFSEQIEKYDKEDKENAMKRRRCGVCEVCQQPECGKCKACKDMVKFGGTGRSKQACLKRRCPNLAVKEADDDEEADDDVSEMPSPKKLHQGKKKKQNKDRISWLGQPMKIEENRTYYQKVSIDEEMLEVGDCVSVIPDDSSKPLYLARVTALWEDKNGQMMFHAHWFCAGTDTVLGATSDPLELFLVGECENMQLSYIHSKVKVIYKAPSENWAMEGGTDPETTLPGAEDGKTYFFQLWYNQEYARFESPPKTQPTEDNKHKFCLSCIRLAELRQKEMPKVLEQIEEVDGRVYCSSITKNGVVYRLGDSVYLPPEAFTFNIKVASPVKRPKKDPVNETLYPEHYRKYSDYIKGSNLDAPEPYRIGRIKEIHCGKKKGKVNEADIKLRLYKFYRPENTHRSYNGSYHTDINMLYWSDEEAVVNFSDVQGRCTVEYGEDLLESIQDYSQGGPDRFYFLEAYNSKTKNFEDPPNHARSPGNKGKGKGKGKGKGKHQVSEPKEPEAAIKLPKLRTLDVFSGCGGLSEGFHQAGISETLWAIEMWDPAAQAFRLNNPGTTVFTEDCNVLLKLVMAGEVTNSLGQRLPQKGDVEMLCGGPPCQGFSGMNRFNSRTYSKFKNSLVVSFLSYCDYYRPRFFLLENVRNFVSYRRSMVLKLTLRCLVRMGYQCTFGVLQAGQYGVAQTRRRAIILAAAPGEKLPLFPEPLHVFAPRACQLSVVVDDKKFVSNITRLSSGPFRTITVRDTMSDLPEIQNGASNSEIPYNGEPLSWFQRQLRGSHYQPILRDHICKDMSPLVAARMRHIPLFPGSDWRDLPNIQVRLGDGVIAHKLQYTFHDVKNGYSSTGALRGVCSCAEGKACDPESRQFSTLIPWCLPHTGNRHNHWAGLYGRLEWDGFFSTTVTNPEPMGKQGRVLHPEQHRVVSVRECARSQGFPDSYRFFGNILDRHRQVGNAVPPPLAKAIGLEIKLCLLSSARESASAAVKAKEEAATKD
UniProt Q5PSV9: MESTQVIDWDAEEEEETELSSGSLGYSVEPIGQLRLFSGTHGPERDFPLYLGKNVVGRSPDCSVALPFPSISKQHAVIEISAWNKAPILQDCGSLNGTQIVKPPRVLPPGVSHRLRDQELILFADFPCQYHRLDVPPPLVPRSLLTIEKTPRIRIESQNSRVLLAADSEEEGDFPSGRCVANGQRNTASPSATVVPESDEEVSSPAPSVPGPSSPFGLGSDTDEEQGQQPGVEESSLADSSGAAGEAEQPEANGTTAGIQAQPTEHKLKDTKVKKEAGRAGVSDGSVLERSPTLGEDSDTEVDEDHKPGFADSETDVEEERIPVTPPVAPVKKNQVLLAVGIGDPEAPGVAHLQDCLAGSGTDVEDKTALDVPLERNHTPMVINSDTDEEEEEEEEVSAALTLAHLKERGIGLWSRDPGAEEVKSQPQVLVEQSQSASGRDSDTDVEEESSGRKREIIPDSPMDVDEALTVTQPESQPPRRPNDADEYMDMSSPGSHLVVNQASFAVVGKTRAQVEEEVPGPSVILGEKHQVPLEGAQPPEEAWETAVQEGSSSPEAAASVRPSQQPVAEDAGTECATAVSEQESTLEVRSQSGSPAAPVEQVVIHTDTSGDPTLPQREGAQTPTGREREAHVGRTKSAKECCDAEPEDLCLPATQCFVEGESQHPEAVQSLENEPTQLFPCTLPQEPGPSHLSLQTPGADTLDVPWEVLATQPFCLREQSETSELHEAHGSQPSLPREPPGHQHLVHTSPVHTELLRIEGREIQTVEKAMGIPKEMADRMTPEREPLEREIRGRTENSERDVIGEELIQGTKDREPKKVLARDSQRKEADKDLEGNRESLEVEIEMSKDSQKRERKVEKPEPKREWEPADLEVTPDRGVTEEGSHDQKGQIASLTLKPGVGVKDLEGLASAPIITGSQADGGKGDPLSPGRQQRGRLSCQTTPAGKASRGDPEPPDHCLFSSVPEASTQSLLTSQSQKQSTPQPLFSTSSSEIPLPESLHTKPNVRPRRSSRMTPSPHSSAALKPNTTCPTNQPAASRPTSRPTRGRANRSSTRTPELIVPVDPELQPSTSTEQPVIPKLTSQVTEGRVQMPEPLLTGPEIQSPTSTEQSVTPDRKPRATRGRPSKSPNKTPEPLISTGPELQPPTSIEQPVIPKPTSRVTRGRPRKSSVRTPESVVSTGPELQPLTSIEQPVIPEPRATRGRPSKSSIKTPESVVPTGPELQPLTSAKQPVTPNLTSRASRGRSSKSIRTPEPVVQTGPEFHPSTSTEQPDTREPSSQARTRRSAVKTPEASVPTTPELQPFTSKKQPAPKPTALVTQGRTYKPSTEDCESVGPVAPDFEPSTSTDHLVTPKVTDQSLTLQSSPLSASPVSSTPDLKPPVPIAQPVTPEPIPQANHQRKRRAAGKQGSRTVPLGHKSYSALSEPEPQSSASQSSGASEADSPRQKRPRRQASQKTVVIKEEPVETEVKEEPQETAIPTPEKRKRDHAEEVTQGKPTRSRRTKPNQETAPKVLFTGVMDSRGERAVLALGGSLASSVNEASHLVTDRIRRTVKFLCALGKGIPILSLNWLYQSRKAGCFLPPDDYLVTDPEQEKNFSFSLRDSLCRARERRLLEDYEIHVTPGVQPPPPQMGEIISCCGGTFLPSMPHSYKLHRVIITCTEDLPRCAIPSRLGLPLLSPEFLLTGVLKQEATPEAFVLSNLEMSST
UniProt P54276: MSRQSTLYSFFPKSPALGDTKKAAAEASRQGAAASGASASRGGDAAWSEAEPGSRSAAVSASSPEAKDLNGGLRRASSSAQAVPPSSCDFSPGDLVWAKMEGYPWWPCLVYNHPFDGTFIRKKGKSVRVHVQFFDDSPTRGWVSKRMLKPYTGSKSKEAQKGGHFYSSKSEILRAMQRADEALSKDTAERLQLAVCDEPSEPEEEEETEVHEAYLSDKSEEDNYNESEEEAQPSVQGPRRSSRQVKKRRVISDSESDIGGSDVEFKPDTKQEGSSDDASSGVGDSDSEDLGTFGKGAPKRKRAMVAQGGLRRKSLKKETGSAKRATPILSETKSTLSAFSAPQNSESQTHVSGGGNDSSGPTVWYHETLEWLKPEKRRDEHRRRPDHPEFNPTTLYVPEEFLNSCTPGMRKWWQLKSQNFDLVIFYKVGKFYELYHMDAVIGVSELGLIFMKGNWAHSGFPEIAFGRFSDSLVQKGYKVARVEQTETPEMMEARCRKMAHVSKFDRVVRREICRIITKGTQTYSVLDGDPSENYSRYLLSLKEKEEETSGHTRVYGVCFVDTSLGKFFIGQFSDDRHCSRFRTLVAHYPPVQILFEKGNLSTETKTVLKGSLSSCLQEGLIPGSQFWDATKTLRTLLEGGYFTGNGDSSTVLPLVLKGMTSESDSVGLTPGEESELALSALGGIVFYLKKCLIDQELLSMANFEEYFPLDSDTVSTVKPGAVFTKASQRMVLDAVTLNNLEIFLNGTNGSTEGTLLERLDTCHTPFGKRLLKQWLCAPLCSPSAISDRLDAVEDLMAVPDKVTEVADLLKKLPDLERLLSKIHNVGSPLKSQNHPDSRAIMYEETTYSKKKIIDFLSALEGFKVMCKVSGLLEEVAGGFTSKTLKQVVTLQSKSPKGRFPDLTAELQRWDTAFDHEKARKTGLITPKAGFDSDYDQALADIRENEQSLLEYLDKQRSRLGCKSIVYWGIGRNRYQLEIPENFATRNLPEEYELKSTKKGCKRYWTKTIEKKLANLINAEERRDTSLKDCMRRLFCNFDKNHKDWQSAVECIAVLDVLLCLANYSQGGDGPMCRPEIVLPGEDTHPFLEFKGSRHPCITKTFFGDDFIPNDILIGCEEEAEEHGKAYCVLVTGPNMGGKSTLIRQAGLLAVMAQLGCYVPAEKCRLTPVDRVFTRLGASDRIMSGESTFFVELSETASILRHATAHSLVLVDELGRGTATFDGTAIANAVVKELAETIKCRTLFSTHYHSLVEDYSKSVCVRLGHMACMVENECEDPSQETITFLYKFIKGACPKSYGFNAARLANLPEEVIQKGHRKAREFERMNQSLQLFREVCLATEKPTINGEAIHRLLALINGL

Molecular target: T1, GST-Zfp296 fusion protein (mouse) (UniProt E9Q6W4)
T1 sequence: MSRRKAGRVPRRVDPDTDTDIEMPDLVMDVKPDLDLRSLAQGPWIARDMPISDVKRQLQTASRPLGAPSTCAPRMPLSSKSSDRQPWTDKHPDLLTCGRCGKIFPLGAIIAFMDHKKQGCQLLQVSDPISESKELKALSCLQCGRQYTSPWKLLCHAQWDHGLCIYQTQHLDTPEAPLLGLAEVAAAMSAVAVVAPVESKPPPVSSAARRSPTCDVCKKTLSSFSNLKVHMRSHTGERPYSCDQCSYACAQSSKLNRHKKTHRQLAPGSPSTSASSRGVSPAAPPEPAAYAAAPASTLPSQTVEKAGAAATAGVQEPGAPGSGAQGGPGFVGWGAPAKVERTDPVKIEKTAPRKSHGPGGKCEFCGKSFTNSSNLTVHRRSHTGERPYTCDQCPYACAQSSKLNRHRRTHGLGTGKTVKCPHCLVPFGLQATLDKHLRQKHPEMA
Test: affinity purification with mass spectrometry; purified GST-Zfp296 or GST bound to glutathione magnetic beads, incubated overnight at 4 °C with nuclease-treated EB3 mouse ES cell nuclear extract (high-salt extract diluted 3-fold in 20 mM Tris-HCl pH 8.0); washed three times with PBS plus 0.1% Tween-20; LC-MS/MS; 2-fold change cut-off against GST alone; only the target purified

binding: binds
Molecule: Dnmt1 (from UniProt P13864 1-1620)

binding: binds
Molecule: Dnmt3b (from UniProt O88509 1-859)

binding: binds
Molecule: H2AX (from UniProt P27661 1-143)

binding: binds
Molecule: MDC1 (from UniProt Q5PSV9 1-1707)

binding: binds
Molecule: MSH6 (from UniProt P54276 1-1358)

binding: binds
B1: LIG3 (protein, UniProt P97386 1-1015)
chain: MTLAFKILFPRNLCALGRKELCLFPEQNRWAAISQFSQWSETNLLGGCCLLQRRKPVLALQRGHLRPRATHLTFWPGSHVGLCTGPCAMAEQRFCVDYAKRGTAGCKKCKEKIVKGVCRIGKVVPNPFSESGGDMKEWYHIKCMFEKLERARATTKKIEDLTELEGWEELEDNEKEQISQHIADLSSKAAATPKKKAAVQAKLTTTGQVTSPVKGASFITSTNPRKFSGFSAAKPNNSEQAPSSPAPGTSLSASKCDPKHKDCLLREFRKLCAMVAENPSYNTKTQIIHDFLQKGSTGGFSDGFHGDVYLTVKLLLPGVIKSVYNLNDKQIVKLFSRIFNCNPDDMARDLEQGDVSETIRIFFEQSKSFPPAAKSLLTIQEVDAFLLHLSKLTKEDEQQQALQDIASRCTANDLKCIIRLIKHDLKMNSGAKHVLDALDPNAYEAFKASRNLQDVVERVLHNEQEVEKDPGRRRALRVQASLMTPVQPMLAEACKSIEYAMKKCPNGMFSEIKYDGERVQVHKKGDHFSYFSRSLKPVLPHKVAHFKDYIPKAFPGGQSMILDSEVLLIDNNTGKPLPFGTLGVHKKAAFQDANVCLFVFDCIYFNDVSLMDRPLCERRKFLHDNMVEIRNRIMFSEMKQVTKASDLADMINRVIREGLEGLVLKDVKGTYEPGKRHWLKVKKDYLNEGAMADTADLVVLGAFYGQGSKGGMMSIFLMGCYDPDSQKWCTVTKCAGGHDDATLARLQKELVMVKISKDPSKIPSWLKINKIYYPDFIVPDPKKAAVWEITGAEFSRSEAHTADGISIRFPRCTRIRDDKDWKSATNLPQLKELYQLSKDKADFAVVAGDEASPTTGGSSGENEGTAGSAGPCKGPPSKSSASAKTTEQKLNSPSSRGGIKPIPKHSPMKPGEKLAVKSSPVKVGMKRKATDETPCLKKVLLDVFTGVRLYLPPSTPDFKRLKRYFVAFDGDLVQEFDMGSATHVLGNREKNTDAQLVSSEWIWACIRKRRLIAPC
